PubChem BioAssay AID1224830, NIAID | 2016
Screen: 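Regulators of TLR4 signalling towards TNF-alpha in macrophage-like cells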 (primary screen). System: human THP-1 monocytic leukaemia cells, TNF dual-luciferase reporter clone, PMA-differentiated to macrophage-like cells. Knock-down reagent: siRNA pool against human genes, 50 nM. Timing: LPS for 4 h, given about 3 days after siRNA transfection. Conditions: bacterial LPS (TLR4 ligand), 10 ng/ml. Measurement: 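TNF firefly reporter luminescence divided by renilla, normalised to the plate median, then turned into a robust z-score for each replicate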. Direction: TNF reporter robust z-score: higher = stronger TNF reporter response to LPS. Hit rule: 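a well is active when its z-score exceeds 2.8 or falls below -1.5; control wells carry no call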.
Here is a random part of about 18,000 reagents tested. About 2,900 of them (16%) count as active. 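Calls are made per well; low scores hint the gene aids the LPS response, high scores that it dampens it.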 Entries without a mark were called inactive. Repeated entries: four replicate wells of each siRNA pool. Reagent sequences are not shown.

no.	gene knocked down	TNF reporter robust z-score
1	PITPNM2	-0.31
2	PITPNM2	-0.24
3	PITPNM2	-1.02
4	PITPNM2	-0.69
5	CAMSAP2	-1.25
6	CAMSAP2	-1.69 (active)
7	CAMSAP2	-0.89
8	CAMSAP2	-1.08
9	SRCIN1	-0.66
10	SRCIN1	-0.76
11	SRCIN1	-1.05
12	SRCIN1	-0.57
13	C8A	0.1
14	C8A	0.29
15	C8A	-0.43
16	C8A	0.19
17	CYP2S1	1.1
18	CYP2S1	1.49
19	CYP2S1	1.68
20	CYP2S1	2.08
21	OR8S1	1.58
22	OR8S1	1.6
23	OR8S1	1.71
24	OR8S1	2.92 (active)
25	CUL1	-0.9
26	CUL1	0.11
27	CUL1	-0.38
28	CUL1	-0.08
29	ZSWIM8	-1.2
30	ZSWIM8	1.28
31	ZSWIM8	0.96
32	ZSWIM8	-0.17
33	RTP5	-0.97
34	RTP5	-1.07
35	RTP5	-1.37
36	RTP5	-0.96
37	RADIL	-0.61
38	RADIL	2.15
39	RADIL	-0.53
40	RADIL	0.85
41	PSMG3	1.35
42	PSMG3	2.76
43	PSMG3	1.64
44	PSMG3	3.09 (active)
45	S100A11	1.16
46	S100A11	1.04
47	S100A11	0.52
48	S100A11	0.43
49	OLFML1	2.18
50	OLFML1	1.52
51	OLFML1	2.34
52	OLFML1	2.21
53	HMHB1	-0.51
54	HMHB1	-0.05
55	HMHB1	-1.25
56	HMHB1	-0.02
57	A4GALT	1.17
58	A4GALT	2.37
59	A4GALT	1.65
60	A4GALT	2.48
61	ADGRF5	-0.06
62	ADGRF5	-0.12
63	ADGRF5	-0.21
64	ADGRF5	0.63
65	NXF1	-1.9 (active)
66	NXF1	-1.66 (active)
67	NXF1	-1.88 (active)
68	NXF1	-1.58 (active)
69	ARHGEF17	0.52
70	ARHGEF17	0.17
71	ARHGEF17	0.97
72	ARHGEF17	1.05
73	MED24	1.11
74	MED24	1.16
75	MED24	0.39
76	MED24	1.17
